# Primary screen of a compound library

Amino acid sequences for entries named in this document (tags omitted). Residues count along the entry.
UniProt P9WFT3, whole entry: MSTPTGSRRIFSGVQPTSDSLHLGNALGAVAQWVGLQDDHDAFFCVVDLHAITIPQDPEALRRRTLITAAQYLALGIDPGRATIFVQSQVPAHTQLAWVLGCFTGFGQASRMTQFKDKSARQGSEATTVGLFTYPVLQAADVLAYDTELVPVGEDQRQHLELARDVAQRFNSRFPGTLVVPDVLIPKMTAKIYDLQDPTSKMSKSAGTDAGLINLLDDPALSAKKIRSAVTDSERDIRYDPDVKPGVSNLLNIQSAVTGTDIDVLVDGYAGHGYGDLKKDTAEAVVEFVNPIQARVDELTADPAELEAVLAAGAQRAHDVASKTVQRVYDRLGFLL
UniProt Q4DA54, 1-478: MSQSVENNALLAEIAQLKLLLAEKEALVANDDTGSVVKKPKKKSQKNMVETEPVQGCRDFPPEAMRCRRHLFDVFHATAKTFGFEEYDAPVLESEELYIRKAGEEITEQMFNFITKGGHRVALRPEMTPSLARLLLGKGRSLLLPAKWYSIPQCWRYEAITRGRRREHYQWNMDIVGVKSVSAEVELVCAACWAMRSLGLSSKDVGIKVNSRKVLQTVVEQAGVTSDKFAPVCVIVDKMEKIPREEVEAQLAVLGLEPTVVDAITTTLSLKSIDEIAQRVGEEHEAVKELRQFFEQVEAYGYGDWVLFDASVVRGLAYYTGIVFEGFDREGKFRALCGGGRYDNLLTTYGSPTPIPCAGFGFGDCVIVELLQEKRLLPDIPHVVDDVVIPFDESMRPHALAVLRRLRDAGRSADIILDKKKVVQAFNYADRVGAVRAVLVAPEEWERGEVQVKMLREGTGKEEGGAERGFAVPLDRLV

A: 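Tryptophan-tRNA ligase, Mycobacterium tuberculosis (UniProt P9WFT3). Enzyme assay of tryptophanyl-tRNA synthetase; the read-out is not stated. Tested at 10 µM. Direction is not recorded; retested compounds ran higher, which suggests that high means inhibition. About 65,000 compounds were tested under these conditions; 0.098% (about 64) showed 50% or more at least once.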
B: 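Cell assay of Leishmania donovani living inside macrophages; the read-out is not stated. Compounds at 30 µM. Direction is inferred from retests: higher values go with stronger inhibition. Size under these conditions: about 69,000 compounds, about 1,000 of them at 50% or above in at least one test.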
C: 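Histidine-tRNA ligase, Trypanosoma cruzi CL Brener (UniProt Q4DA54). Enzyme assay of histidyl-tRNA synthetase; the read-out is not stated. Tested at 30 µM. Higher reads as stronger inhibition (inferred: compounds with an IC50 in retests scored well above the rest). About 69,000 compounds were tested under these conditions; 0.045% (about 31) showed 50% or more at least once.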

Results are given as percent effect.
The record does not define 0% and 100%; most values in the screen are far below 50% and negative numbers occur (in some assays of this library far below -100).
This is an unselected part of the compounds tested.
Two or more numbers in one place are separate tests of the same structure; such repeats can differ widely.

{"compound": "CN(C)c1ncccc1CNC(=O)NCc1ccc(Cl)s1", "A": 2.756, "B": 22.07, "C": 8}
{"compound": "CO[C@@H]1CC[C@@H](NC(=O)CCc2ccc(Cl)cc2)[C@H]1O", "A": -0.4569, "B": 35.24, "C": 2.825}
{"compound": "Cc1nc(CNC(C)c2ccc(OCC(=O)NC3CC3)cc2)cs1", "stereo": "stereo not given", "A": -1.072, "B": -15.32, "C": 0.3759}
{"compound": "CSc1ccc(C(=O)N2CC(=O)N(CC(C)(C)C)CC(O)C2)cc1", "stereo": "stereo not given", "B": -0.04411, "C": 8.989}
{"compound": "Cc1noc(C)c1S(=O)(=O)N1CCc2nc(C3CCNCC3)ncc2C1", "C": 12.77}
{"compound": "COCCN(Cc1ccc(C)cc1)Cc1nccn1C", "A": -9.252, "B": 21.29, "C": 1.676}
{"compound": "O=C(CCCn1cncn1)N1CCC2(CCCN(CC3CC3)C2=O)C1", "stereo": "stereo not given", "A": 11.18, "B": -9.191, "C": 1.02}
{"compound": "CCO[C@H]1CO[C@@]2(CCCN(Cc3scnc3C)C2)C1", "A": 3.828, "C": 15.08}
{"compound": "Cc1ccnc(OCC(=O)N2CCC(C(N)=O)CC2)n1", "A": -1.069, "B": 6.623, "C": 0.8264}
{"compound": "O=C(NCC1CCOC1)Nc1ccc(Oc2cccc(F)c2)nc1", "stereo": "stereo not given", "A": 7.487, "B": 14.78, "C": 4.985}
{"compound": "CCc1cc(C(=O)NCC2CCN(Cc3cccc(C#N)c3)C2)on1", "stereo": "stereo not given", "A": 5.709, "B": 17.37, "C": 1.02}
{"compound": "NC(=O)c1cccc(CC2CCN(C(=O)CCc3cccc(F)c3)C2)c1", "stereo": "stereo not given", "A": 0.7971, "B": -23.78, "C": -1.508}
{"compound": "O=C([C@H]1CN(Cc2nccs2)C[C@H]2OCC[C@@H]12)N1CCCC1", "A": 4.928, "C": 1.02}
{"compound": "CC(C)N1CCOC(c2ccnc(N(C)C)n2)C1", "stereo": "stereo not given", "A": -11.06, "B": 35.39, "C": 2}
{"compound": "Cc1ccc(CNC(=O)Nc2nncs2)cn1", "A": -1.885, "B": 10.06, "C": 2.857}
{"compound": "CCc1ncc(CN2CCC(Oc3ccccc3OC)CC2)cn1", "A": 0.618, "B": 22.29, "C": -2.424}
{"compound": "CCN(CC)Cc1ccccc1NC(=O)N(C)Cc1ccc(OC)cc1", "A": -2.897, "B": 23.93, "C": 2.062}
{"compound": "CCc1nccn1C1CCCN(C(=O)c2ccc3[nH]c(=O)[nH]c3c2)C1", "stereo": "stereo not given", "A": 1.199, "B": -10.66, "C": -0.7634}
{"compound": "Cc1nn(C)c(C)c1CN(Cc1cccn1-c1ccccn1)C(C)C", "A": 6.716, "B": -2.345, "C": 0.5525}
{"compound": "Cc1ncncc1C(=O)N1CCOC(C)(C(=O)NC2CCCC2)C1", "stereo": "stereo not given", "A": -1.217, "B": "6.479 and -4.009", "C": 3.731}
{"compound": "[H][C@]12CN(S(=O)(=O)c3ccc(C(=O)NC[C@H]4CCCO4)cc3)[C@]([H])(CN1)C2", "B": 1.911}
{"compound": "COCCN1CCC(CNC(=O)C2(c3cccc(C)c3)CC2)C1", "stereo": "stereo not given", "A": 0.3668, "B": 9.284, "C": 11.56}
{"compound": "Cc1ccc(C(C)NC(=O)CSCC(N)=O)cc1", "stereo": "stereo not given", "A": 0.07178, "B": -10.58, "C": 3.509}
{"compound": "c1cncc(N2CC[C@@H]3CN(CC4CC4)C[C@@H]3C2)c1", "A": 2.49, "C": 2.439}
{"compound": "CNc1cc(C2CCCN2S(=O)(=O)c2cccc(F)c2)ccn1", "stereo": "stereo not given", "A": 3.42, "B": "-0.4502 and 0.8451", "C": 1.493}
{"compound": "CCc1nc(CN2CCCN(C(=O)C3CCOC3)CC2)cs1", "stereo": "stereo not given", "A": -1.814, "B": -58.34, "C": 5.833}

Some entries from above, unchanged:

{"compound": "Cc1ccc(CNC(=O)Nc2nncs2)cn1", "A": -1.885, "B": 10.06, "C": 2.857}
{"compound": "Cc1ncncc1C(=O)N1CCOC(C)(C(=O)NC2CCCC2)C1", "stereo": "stereo not given", "A": -1.217, "B": "6.479 and -4.009", "C": 3.731}
{"compound": "O=C(CCCn1cncn1)N1CCC2(CCCN(CC3CC3)C2=O)C1", "stereo": "stereo not given", "A": 11.18, "B": -9.191, "C": 1.02}

From ChEMBL document CHEMBL3988442, “University of Dundee, Small-Polar-MMV Screening Library” (2021).